# Experimental data reported in the supplement of paper PMC10338343.
# ± gives the standard deviation. The entries are a selection whose mix differs from that of the whole data set. Many entries were measured with a wide error.
# System: MIWI (PIWIL1) piRISC loaded with Kctd7 piRNA (30 nt)
# Assay: pre-steady-state target cleavage rate (min^-1); MIWI and MILI are mouse PIWI proteins and EfPiwi is from a freshwater sponge; tags in brackets are library labels; higher = faster piRNA-guided slicing of the target
# Details: guide: Kctd7 piRNA 5'p-UGUUAAUCUCUCAGAGAAGGUGACAGUGAU; auxiliary factor: 500 nM mouse GTSF1
# Method in brief: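 Cleave-'n-Seq used a transcribed, DNA-blocked target RNA library at 0.1 nM and active affinity-purified piRISC with one synthetic guide at 1 nM, with or without 500 nM GTSF1 partner protein, in HEPES–potassium acetate buffer at 33 °C for 0–8 or 0–960 min. Uncleaved targets were sequenced and normalised to depth and to weakly complementary targets, and three trials were pooled with k3 capped at 0.0001 min^-1. The pre-steady-state cleavage rate was estimated by a burst-and-steady-state fit.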
row,Sequence,pre-steady-state target cleavage rate
1,UAGUGACAGUCCUUGUCUGAGAGAAUAACA,0.00106 ± 0.009
2,UAGUGACAGUGCUUCUCAUGAGAGAUUAACA,0.000634 ± 0.011
3,UAGUGACAGACCUUCUCUGACUCAUUAUGA,0.000405 ± 0.016
4,UAGACUGUGUCCUUCUCUGAGAGAUAUUGA,0.000795 ± 0.0094
5,UAGUCUGUCACCUUCUCUGAGACAUUAUGA,0.00346 ± 0.004
6,UAGUGUGUCACCUUCUGACAGAGAUUUUGA,0.00114 ± 0.011
7,UUCACUGUCACCUUCUCUGACUGAUUUUGA,0.00183 ± 0.0043
8,UAGUGACAGUGGAACUCUGAGAGAUUAACU [g2:g16:cont:t1U],0.000111 ± 0.048
9,UUCACUGUCUGGUUCUCUGAGAGAUUUUGA,0.000926 ± 0.0095
10,UACACUGUCACCUUCUCUGAGUCAUAUUGA,0.00157 ± 0.0054
11,UAGUGACAGUGGAACUCUGAGAGUUUUACA,0.000399 ± 0.023
12,UAGUGACAGUGGAAGAGUGAGCGAUUAACA,0.000349 ± 0.01
13,UAGUGACACACCUUCUGAGAGAGAUUAAGA,0.0042 ± 0.0048
14,UAGUGUCACACCUUCUCUGAGAGAUAUUGA,0.00616 ± 0.0033
15,UUGACUGUCACGUUCUCUGAGAGAUUAACA,0.711 ± 0.037
16,UAGACUGUCACCUUCUCUGAGUCUAAUUGA [g10:g27:cont:t1A],0.000439 ± 0.0087
17,UAGUGACAGUGCUUCUCUGAGAGAUUACA,0.000168 ± 0.014
18,UAGUGACAGACGUUCUCUGACAGAUUAACA,0.000115 ± 0.058
19,UAGUGACUCACCUUCUCUGAGAGUAAUUGA [g8:g23:cont:t1A],0.00172 ± 0.0051
20,AUCACAGUCACCAUCUCUGAGAGAUUAACA,0.771 ± 0.036
21,UAGUGACAGUCCUAGACUGAGAGAUUAACA,0.000202 ± 0.024
22,UAGUGACAGACCUUCUCUGACUCAUUUUGA,0.000205 ± 0.021
23,UAGUGACAGUGCUUCUCUGAGACAUUAUCA,0.000121 ± 0.018
24,UAGACUGUCACCUUCUCUGUCUGAUUAACA,0.000564 ± 0.0071

# Copied from the list.
# In pre-steady-state target cleavage rate, UAGACUGUCACCUUCUCUGUCUGAUUAACA has the entry 0.000564 ± 0.0071
# In pre-steady-state target cleavage rate, UAGACUGUCACCUUCUCUGAGUCUAAUUGA [g10:g27:cont:t1A] has the entry 0.000439 ± 0.0087
# In pre-steady-state target cleavage rate, UAGUGUCACACCUUCUCUGAGAGAUAUUGA has the entry 0.00616 ± 0.0033
# In pre-steady-state target cleavage rate, UAGUGACAGUGGAACUCUGAGAGUUUUACA has the entry 0.000399 ± 0.023
# In pre-steady-state target cleavage rate, UAGUGACACACCUUCUGAGAGAGAUUAAGA has the entry 0.0042 ± 0.0048

# (listing goes on)

row,Sequence,pre-steady-state target cleavage rate
1,UAGUGACACACCUUCUCUGACUCAUUUUGA,0.00106 ± 0.006
2,UAGUCUGUCACCUUCUCUGAGAGAAAUACA,0.0823 ± 0.015
3,UAGUGACAGACCUUCACUGAGAGAAUAACA,0.00382 ± 0.0042
4,UAGUGACAGUCCUUCUCUCACAGAUUAACA,0.000592 ± 0.015
5,UAGUGACAGACCUUCUCUCAGACAUUAACA,0.00309 ± 0.0032
6,AUCACGUGUCACCUUCUCUGAGAGAUUAACA,0.63 ± 0.03
7,UUCACUGUCACCUUCUCUGAGCGAUUAACA,0.13 ± 0.0091
8,UAGUGACAGUCCAUCUCUGAGAGAUUUACA,0.00224 ± 0.0037
9,UAGUGACAGACCUUCACUCAGAGAUUAACA,0.00134 ± 0.0087
10,UAGUGACAGUGCUUCUCUCAGAGAUUAACA,0.00163 ± 0.0051
11,UAGACUGUCACCUUCUCUCUCUCUAAUUGA [g13:g27:cont:t1A],< 0.0001
12,UUCACUGUCACCUAGUCUGAGAGAUUUUGA,0.111 ± 0.03
13,UAGUGACAGUCCUUCUCAGAGUGAUUAACA,0.00217 ± 0.005
14,UACUCUGUCACCUUCUGUGAGAGAUUAACA,0.533 ± 0.025
15,UAGUGACAGAGGAUCUCUGAGAGAUUAACA,0.000165 ± 0.017
16,UAGUGACAGACCUUCUCUGAGUCAUUUUGA,0.000643 ± 0.012
17,UAGUGACACACCUUCUCACAGAGAUAUUGA,0.000794 ± 0.011
18,AUUCACUGUCACCUUCUCUGAGAGAUUAACA,0.737 ± 0.036
19,UAGUGACAGACCUAGUCUGAGAGAUUAACA,0.00247 ± 0.0044
20,UAGUGACUCACCUUCUCUGUCUGAUUUUGA,0.000149 ± 0.052
21,UAGUGACUCACGUUCUCUGACAGAUUAACA,0.00367 ± 0.0032
22,UAGUGUGUCUGGUUCUCUGAGAGAUUAAGA,0.00251 ± 0.0027
23,UAGUGAGUCACCUUCUCUGACUCUAAUUGA [g11:g24:cont:t1A],0.0013 ± 0.0086
24,UAGUGACAGUGCUUCUCUGAGACAUUAACA,0.00283 ± 0.0031

row,Sequence,pre-steady-state target cleavage rate
1,UAGUGACAGUCCUUCUCUGUGUGAUUAACA,0.00154 ± 0.0039
2,UAGUGACACACGAUCUCUGAGAGAUUUUGA,0.000246 ± 0.025
3,UAGUCUCACACCUUCUCUGAGAGAUUAUGA,0.0207 ± 0.0066
4,UAGUGACUCACCUUCUCUCAGAGAUUAUGA,0.00158 ± 0.0092
5,UAGUGACAGUGGAAGUCUGGAGAUUAACA,0.000778 ± 0.0037
6,UUGUGUGUCACCUUCUCUGAGAGAUUAACA,0.571 ± 0.025
7,UUCUCUGUCACCUUCUCUGAGAGAUUAACA,0.585 ± 0.031
8,UAGUGACAGUGCUUCUCUGAGAGAUAUACA,0.0019 ± 0.0032
9,UACACAGUCACCAUCUCUGAGAGAUUAACA,0.833 ± 0.045
10,AUCACUGUCACCUGUCUCUGAGAGAUUAACA,0.651 ± 0.038
11,UAGUGACAGACCAUCUCUGACAGAUUAACA,0.00263 ± 0.0043
12,UAGUGACAGUGCUUCUCUGAGAGAUUAUGA,0.000187 ± 0.013
13,UAGUGACAGUGCUUCUCUGAGAGAAAAACA,0.00125 ± 0.0066
14,UACACUGUCACCUUCUCUCUCAGAUUAAGA,0.00214 ± 0.0081
15,UAGUGACAGUGGAACUCUGAGUGAUAAACA,0.000608 ± 0.022
16,UUCACUGUCACCUUCUCUGAGUCUUAUUGA,0.0021 ± 0.0048
17,UAGUGACUCACCUUCUCUCAGAGAUAUUGA,0.000828 ± 0.013
18,UAGUGUGAGUCCUUCUCUGAGAGAUAUUGA,0.00158 ± 0.0051
19,UAGUGACAGUGCUACUCUGAGAGAUUAACA,0.000242 ± 0.0094
20,UAGUGACACACCUUCUUGAGAGAUUAACA,0.00261 ± 0.006
21,UAGUCUGUGUCCUUCUCUGAGAGAUAUUGA,0.00175 ± 0.004
22,UACACUGUCACCUUCACUGUGAGAUUAACA,0.116 ± 0.015
23,UAGUGACAGACCUUCUCAGAGAGAUUUUGA,0.000912 ± 0.012
